Results published in patent publication US20190175691A1, “METHODS FOR DETECTING AND MODULATING THE EMBRYONIC-FETAL TRANSITION IN MAMMALIAN SPECIES” (BioTime, Inc., priority 2016, published 2019).
For some of these results: At least one compound was matched to its structure with a doubt left. Some entries repeat one wording, which the source may state once for all of them. Some entries share one result that the patent states for a list of compounds. Some ranges recur; such a range may be that of the whole group of compounds.

system: Sarcoma lines ASPS-1 and Rh28 PX11/LPAM (COX7A1 expressing); assay: Sarcoma lines screened for sensitivity to chemotherapeutic agents; format: cell-based; conditions: typically

| SMILES | IC50 for apoptosis in COX7A1-expressing sarcoma lines relative to other sarcoma lines |
| --- | --- |
| Nc1nc(Cl)nc2c1ncn2[C@@H]1O[C@H](CO)[C@@H](O)[C@@H]1F [Clofarabine] | 1-2 orders of magnitude higher IC50 |
| COc1cc([C@@H]2c3cc4c(cc3[C@@H](O[C@@H]3O[C@@H]5CO[C@@H](C)O[C@H]5[C@H](O)[C@H]3O)[C@H]3COC(=O)[C@H]23)OCO4)cc(OC)c1O [Etoposide] | 1-2 orders of magnitude higher IC50 |
| O=c1[nH]c(=O)n([C@H]2C[C@H](O)[C@@H](CO)O2)cc1F [Floxuridine] | 1-2 orders of magnitude higher IC50 |
| CC(=O)O[C@H]1C(=O)[C@@]2(C)[C@H]([C@H](OC(=O)c3ccccc3)[C@]3(O)C[C@H](OC(=O)[C@H](O)[C@@H](NC(=O)c4ccccc4)c4ccccc4)C(C)=C1C3(C)C)[C@]1(OC(C)=O)CO[C@@H]1C[C@@H]2O [Paclitaxel] | 1-2 orders of magnitude higher IC50 |
| CCCCC(=O)OCC(=O)[C@]1(O)Cc2c(O)c3c(c(O)c2[C@@H](O[C@H]2C[C@H](NC(=O)C(F)(F)F)[C@H](O)[C@H](C)O2)C1)C(=O)c1c(OC)cccc1C3=O [Valrubicin] | 1-2 orders of magnitude higher IC50 |
| CCC1=C[C@@H]2CN(C1)Cc1c([nH]c3ccccc13)[C@@](C(=O)OC)(c1cc3c(cc1OC)N(C)[C@H]1[C@@](O)(C(=O)OC)[C@H](OC(C)=O)[C@]4(CC)C=CCN5CC[C@]31[C@@H]54)C2 [Vinorelbine] | 1-2 orders of magnitude higher IC50 |
| COc1cc([C@@H]2c3cc4c(cc3[C@@H](O[C@@H]3O[C@@H]5CO[C@@H](c6cccs6)O[C@H]5[C@H](O)[C@H]3O)[C@H]3COC(=O)[C@H]23)OCO4)cc(OC)c1O [teniposide] | 1-2 orders of magnitude higher IC50 |

system: COX7A1 transcript; assay: Screen for iCM factors: increase of COX7A1 transcript in cancer cell lines; format: cell-based; conditions: Lung (A549), breast (MCF7), and prostate (PC3) cancer cell lines
Excerpt: Lung (A549), breast (MCF7), and prostate (PC3) cancer cell lines were exposed to diverse factors including biologically active small molecules as well as RNAi directed to specific genes and the relative increase in levels of COX7A1 transcript was used as a marker of iCM.

| SMILES | COX7A1 expression (relative increase of COX7A1 transcript as marker of iCM) |
| --- | --- |
| Cc1[nH]c2ccccc2c1CCNCc1ccc(/C=C/C(=O)NO)cc1 [panobinostat] | increased COX7A1 expression |
| O=c1cc(-c2ccc(O)cc2)oc2c([C@@H]3O[C@H](CO)[C@@H](O)[C@H](O)[C@H]3O)c(O)cc(O)c12 [vitexin] | increased COX7A1 expression |
| COC[C@H]1OC(=O)c2coc3c2[C@@]1(C)C1=C(C3=O)[C@@H]2CCC(=O)[C@@]2(C)C[C@H]1OC(C)=O [wortmannin] | increased COX7A1 expression |
